At least one compound was matched to its structure with a doubt left.
Test system: NBP10-induced neurite outgrowth
Experiment: Inhibition of NBP10d-induced neurite outgrowth by inhibitors of NCAM-dependent signal transduction
Format: cell-based, rat
Settings: NBP10d 1 μM; inhibitor 10 μM

SMILES: COC(=O)C1=C(C)NC(C)=C(C(=O)OC)C1c1ccccc1[N+](=O)[O-] [nifedipine]
- effect on NBP10-induced neurite outgrowth: partial inhibition
